Weaker means in comparison with the reference protein, sequence or condition of that experiment. Construct, isoform or probe ends are uncertain for at least one entry.
Molecular target: Ku70 SAP domain K596A (Homo sapiens) (UniProt P12956)
Test: EMSA
Conditions: SAP EMSA: 105 mM KCl (400 bp) or 46 mM KCl (153 bp), 3 mM Tris-HCl pH 7.5, 0.1 mM EDTA, 3-4% glycerol, 15 min room temp, agarose (0.8% or 1.5%), recombinant protein, residues 539-609

Sequences of proteins named here, by UniProt entry; tags and fusion partners are left off. Residues count along the entry.
UniProt P12956, 539-609 K596A: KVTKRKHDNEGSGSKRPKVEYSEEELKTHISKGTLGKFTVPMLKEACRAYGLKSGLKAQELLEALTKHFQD

Row | Sequence | binding result (105 mM KCl, probe letters rebuilt from the primers and the genome) | binding result (46 mM KCl)
1 | ACTTGACTCATGATTTCTTACCTATTAGTGGTTGAACAGCATCGGACTCAGATAGTAATCCACGCTCTTTTAAAATGTCAACAAGAGAATCTCTACCATGAACAAAATGTGACTCATATCTAAACCAGTCCTTGACGAACGTGCCAAGCATATTAAGCCACTTCTCCTCATCCAACGCGTCAGTTTTTGACAGAATCGTTAGTTGATGGCGAAAGGTCGCAAAGTAAGAGCTTCTCGAGCTGCGCAAGGATAGGTCGAATTTTCTCATTTTCCGCCAGCAGTCCACTTCGATTTAATTCGTAAACAAGCAGTAGTAATTCCTGCTTTATCAAGATAATTTTTCGACTCATCAGAAATATCCGAAAGTGTTAACTTCTGCGTCATGGAAGCGATAAAACTC (double strand) [400 bp PhiX174 fragment] | binds more weakly | 
2 | ATCCTGGAGAATCCCGGTGCCGAGGCCGCTCAATTGGTCGTAGACAGCTCTAGCACCGCTTAAACGCACGTACGCGCTGTCCCCCGCGTTTTAACCGCCAAGGGGATTACTCCCTAGTCTCCAGGCACGTGTCAGATATATACATCCTGTGAT (double strand) [153 bp free DNA] |  | binds more weakly

Reference: PMC12816671
